In patent EP0760376A1 (Kyowa Hakko Kogyo Co., Ltd., priority 1995, dated 1996) one finds crude mass and isolated mass data, which are given here for nine substances.

The first series in a line: general procedure: Fmoc solid-phase peptide synthesis; Rink amide-resin or Rink amide-MBHA-resin (Shimadzu synthesizer); p-methyl-BHA-resin (ABI synthesizer); PyBOP/HOBt/NMM. To be noted: whole synthesis, scale 50 mg resin.
“C3H7CO-Leu-Tyr-Arg-Lys-Met-Arg-Leu-Arg-Tyr-Pro-Val-NH-(CH2)11CONH2” returned a crude mass of 35.3 mg and an isolated mass of 26.4 mg.

“C17H35CO-Leu-Tyr-Arg-Lys-Met-Arg-Leu-Arg-Tyr-Pro-Val-NH-(CH2)11CONH2” yielded a crude mass of 45.8 mg and an isolated mass of 30.8 mg.

The substance “CH3CO-Leu-Tyr-Arg-Lys-Met-Arg-Leu-Arg-Tyr-Pro-Val-NH-(CH2)4CONH2” displayed a crude mass of 36.5 mg and an isolated mass of 6.3 mg.

The substance “CH3CO-Leu-Tyr-Arg-Lys-Met-Arg-Leu-Arg-Tyr-Pro-Val-NH-(CH2)5CONH2” registered a crude mass of 40.0 mg and an isolated mass of 13.9 mg.

“CH3CO-Leu-Tyr-Arg-Lys-Met-Arg-Leu-Arg-Tyr-Pro-Val-NH-(CH2)6CONH2” yielded a crude mass of 20.0 mg and an isolated mass of 5.0 mg.

Substance “CH3CO-Leu-Tyr-Arg-Lys-Met-Arg-Leu-Arg-Tyr-Pro-Val-NH-(CH2)7CONH2” displayed a crude mass of 37.8 mg and an isolated mass of 10.3 mg.

On to “CH3CO-Leu-Tyr-Arg-Lys-Met-Arg-Leu-Arg-Tyr-Pro-Val-NH-(CH2)10CONH2”, for which the crude mass was determined as 43.1 mg and the isolated mass is 13.1 mg.

The substance “CH3CO-Leu-Tyr-Arg-Lys-Met-Arg-Leu-Arg-Tyr-Pro-Val-NH-(CH2)11CONH2” came in with a crude mass of 22.3 mg and an isolated mass of 3.9 mg.

Staying with this series, now noted: whole synthesis, scale 60 mg resin.
Turning to “CH3CO-Leu-Tyr-Arg-Lys-Met-Arg-Leu-Arg-Tyr-Pro-Val-NH-(CH2)3CONH2”, the isolated mass is recorded as 9.5 mg.
